# These are yes or no findings as the source states them, for the method shown. Some binding calls cover weakened binding; strength is not graded here. Where a sequence is shown, tags or fusion partners need not be part of it.
# The chains behind the UniProt entries cited, without tags or fusion partners. Residues count along the entry.
# UniProt Q8LBP4, residues 57-462: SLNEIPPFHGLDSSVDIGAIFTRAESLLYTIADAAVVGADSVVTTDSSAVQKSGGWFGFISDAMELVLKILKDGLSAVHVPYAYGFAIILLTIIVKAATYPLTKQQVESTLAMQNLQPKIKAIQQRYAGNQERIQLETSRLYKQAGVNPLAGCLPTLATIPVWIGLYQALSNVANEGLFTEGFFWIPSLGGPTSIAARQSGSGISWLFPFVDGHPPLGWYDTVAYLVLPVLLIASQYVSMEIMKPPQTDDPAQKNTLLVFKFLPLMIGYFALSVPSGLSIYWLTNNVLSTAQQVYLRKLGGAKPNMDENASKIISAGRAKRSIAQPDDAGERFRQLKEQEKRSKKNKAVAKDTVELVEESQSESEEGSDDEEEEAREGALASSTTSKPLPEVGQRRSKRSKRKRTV
# UniProt Q9FYL3, residues 46-499: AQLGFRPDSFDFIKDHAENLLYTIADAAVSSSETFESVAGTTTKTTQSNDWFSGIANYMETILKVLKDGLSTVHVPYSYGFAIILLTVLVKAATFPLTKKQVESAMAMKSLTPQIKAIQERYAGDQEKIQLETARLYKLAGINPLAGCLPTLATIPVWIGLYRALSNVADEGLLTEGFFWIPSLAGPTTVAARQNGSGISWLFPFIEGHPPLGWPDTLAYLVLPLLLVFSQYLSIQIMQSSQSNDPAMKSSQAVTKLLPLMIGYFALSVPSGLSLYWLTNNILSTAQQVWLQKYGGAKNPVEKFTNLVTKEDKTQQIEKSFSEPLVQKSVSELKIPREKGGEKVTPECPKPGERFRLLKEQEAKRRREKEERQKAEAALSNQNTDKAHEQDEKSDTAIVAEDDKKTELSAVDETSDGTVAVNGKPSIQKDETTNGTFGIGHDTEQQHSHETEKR
# What was measured:
# [1] = biological target: Alb3-Cub (mature full-length Alb3 fused to the C-terminal half of ubiquitin) (Arabidopsis thaliana) (UniProt Q8LBP4); assay: two-hybrid
# [2] = biological target: Alb4-Cub (mature full-length Alb4 fused to the C-terminal half of ubiquitin) (Arabidopsis thaliana) (UniProt Q9FYL3); assay: two-hybrid
binder,measurement,setting,value
"NubG-Get3b (mature Get3b fused to a modified N-terminal half of ubiquitin) (protein, UniProt A1L4Y1 68-411) VASPTETISEFDEMVSGTKRKYYMLGGKGGVGKTSCAASLAVRFANNGHPTLVVSTDPAHSLSDSFAQDLTGGMLVPVEGPEAPLFALEINPEKAREEFRSASQMNGGTGVKDFMDGMGLGMLVEQLGELKLGELLDTPPPGLDEAIAISKVIQFLESPEYNMFTRIVFDTAPTGHTLRLLSLPDFLDASIGKILKLRQKITSATSAIKSVFGKEEKGPDAADKLEKLRERMVKVRELFRDTESTEFVIVTIPTVMAVSESSRLSASLKKESVPVKRLIVNQLLPPSSSDCKFCSIKRKDQMRALDMIREDSELSALTLMEAPLVDMEIRGVPALRFLGDIIWK",binding,[1],binds
same,binding,[2],binds

# — doi:10.1101/2024.12.05.626995 (bioRxiv, 2024)
